Experimental data: patent US20210292680A1, “MULTIFUNCTIONAL AROMATIC ALCOHOLS FOR PERSONAL CARE, HOME CARE AND INDUSTRIAL AND INSTITUTIONAL COMPOSITIONS” (EMERALD KALAMA CHEMICAL, LLC, priority 2018, published 2021)

Test: Process defoaming evaluation (modified ASTM E2407-04)
Details: 0.4 wt. % aromatic alcohol; 2.0 wt. % SLES solution
Protocol: Defoaming evaluation: Process defoaming was tested using a modified ASTM method (E2407-04 (2015) Standard Test Method for Effectiveness of Defoaming Agents). 250 mL of a 2.0 wt. % surfactant solution was blended at the highest speed setting for 30 seconds, then let sit for 3 minutes. The initial foam height is measured, and then 0.4 wt. % defoamer is dropped onto the surface of the foam. The blender is turned on low speed and the solution is mixed for 1 minute. Foam height is re-measured after an additional five minutes of sitting.
Process defoaming was tested using a modified ASTM method (E2407-04 (2015) Standard Test Method for Effectiveness of Defoaming Agents) to assess surfactants and determine if there was a relationship between foam destabilization and surfactant type. Two different surfactant solutions were tested. 2.0 wt. % surfactant solutions were prepared as controls using BioSoft® N1-7 and SLES. Thereafter, 0.4 wt. % aromatic alcohols (R=3 and R=4) were added to each surfactant solution for comparison to the controls. After agitation to generate foam, the percent of initial foam volume loss was far less for the control (without aromatic alcohols).

Question: Which “defoaming effect (foam loss, % of initial foam volume)” value does the source give for CC(CO)Cc1ccccc1 (centres unmarked) [2-methyl-3-phenylpropanol] here?
Answer: The value was “very mild defoaming effect”.

Question: Which “defoaming effect (foam loss, % of initial foam volume)” value does the source give for OCCCc1ccccc1 [3-phenylpropanol] here?
Answer: Its value is “very mild defoaming effect”.
